The source of these data is article doi:10.1101/2025.04.23.650334.

Amino acid sequences for entries named in this document (tags omitted). A change or cut given only in a name is not applied to a line headed by its entry.
UniProt A8B672: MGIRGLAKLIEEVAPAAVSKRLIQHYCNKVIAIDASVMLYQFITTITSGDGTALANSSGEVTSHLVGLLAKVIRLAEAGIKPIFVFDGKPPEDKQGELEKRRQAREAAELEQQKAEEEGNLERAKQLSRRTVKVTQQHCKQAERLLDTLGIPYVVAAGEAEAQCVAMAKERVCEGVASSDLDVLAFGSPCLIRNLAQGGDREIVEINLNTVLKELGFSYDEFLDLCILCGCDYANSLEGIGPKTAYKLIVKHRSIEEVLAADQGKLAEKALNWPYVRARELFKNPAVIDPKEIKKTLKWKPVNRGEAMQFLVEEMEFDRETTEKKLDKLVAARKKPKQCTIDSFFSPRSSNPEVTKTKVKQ

Series [1] deals with GdFen1-HsHC (Giardia duodenalis) (UniProt A8B672). As to the kind of experiment: EMSA. Particulars: 5 mM MgCl2. On the technique in general: In EMSA bound probe runs differently from free probe, usually more slowly.
The target in series [2] is GdFen1-HsAB (Giardia duodenalis) (UniProt A8B672). As to the kind of experiment: EMSA. Particulars: 5 mM MgCl2.

Construct, isoform or probe ends are uncertain for at least one entry.

Regarding “CGCGGATCCCACTACGCCGATTTTTTTTTTTTTTTTTTTTACGTATGCCACGAATTCGCG / CGCGAATTCGTGGCATACGTTTTTTTTTTTTTTTTTTTTTTCGGCGTAGTGGGATCCGCG [Bubble probe]”, the binding result in series [1] and in series [2] was “binds” throughout.
